No constants are given. Whether binding was seen depends on the method and setting. In cells and extracts the contact can be indirect. Some results given as binding are weak or reduced against the parent protein; the word gives no strength. For some of these results: Sequences can lack the tags named with a protein.
Legend:
FLAG-NMI (human) [1] = biological target: T1, FLAG-NMI (human) (UniProt Q13287); assay: co-IP; two-step co-IP; HEK293T co-transfected with HA-p65, FLAG-NMI and Myc-IκBα; first IP anti-FLAG, elution with FLAG peptide in lysis buffer with 250 mM NaCl, second IP anti-HA in lysis buffer with 300 mM NaCl; 4 °C
T1 sequence: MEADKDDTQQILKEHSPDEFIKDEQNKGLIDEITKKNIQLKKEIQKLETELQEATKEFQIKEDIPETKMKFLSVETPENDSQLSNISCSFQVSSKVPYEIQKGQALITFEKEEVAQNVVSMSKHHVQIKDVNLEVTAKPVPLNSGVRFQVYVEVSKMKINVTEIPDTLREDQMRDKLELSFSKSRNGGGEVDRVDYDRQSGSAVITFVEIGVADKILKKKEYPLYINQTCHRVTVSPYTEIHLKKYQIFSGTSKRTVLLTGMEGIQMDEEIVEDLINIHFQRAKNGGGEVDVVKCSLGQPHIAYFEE

The chains behind the UniProt entries cited, without tags or fusion partners.
UniProt Q04206: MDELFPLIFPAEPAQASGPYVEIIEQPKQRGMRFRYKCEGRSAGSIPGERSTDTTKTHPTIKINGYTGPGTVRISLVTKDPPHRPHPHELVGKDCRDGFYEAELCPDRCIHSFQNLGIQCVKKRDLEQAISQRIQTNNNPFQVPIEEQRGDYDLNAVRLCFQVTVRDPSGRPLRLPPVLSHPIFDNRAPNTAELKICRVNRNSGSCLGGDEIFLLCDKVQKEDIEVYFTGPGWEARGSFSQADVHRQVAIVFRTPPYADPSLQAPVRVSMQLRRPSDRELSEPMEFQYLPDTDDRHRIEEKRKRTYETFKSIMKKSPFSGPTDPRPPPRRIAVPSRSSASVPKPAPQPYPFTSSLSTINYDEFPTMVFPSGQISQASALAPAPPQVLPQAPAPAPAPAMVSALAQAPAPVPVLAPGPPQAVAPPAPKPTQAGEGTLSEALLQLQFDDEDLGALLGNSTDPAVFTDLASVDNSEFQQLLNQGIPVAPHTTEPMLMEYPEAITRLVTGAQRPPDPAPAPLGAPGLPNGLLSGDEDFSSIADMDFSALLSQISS
UniProt P19838: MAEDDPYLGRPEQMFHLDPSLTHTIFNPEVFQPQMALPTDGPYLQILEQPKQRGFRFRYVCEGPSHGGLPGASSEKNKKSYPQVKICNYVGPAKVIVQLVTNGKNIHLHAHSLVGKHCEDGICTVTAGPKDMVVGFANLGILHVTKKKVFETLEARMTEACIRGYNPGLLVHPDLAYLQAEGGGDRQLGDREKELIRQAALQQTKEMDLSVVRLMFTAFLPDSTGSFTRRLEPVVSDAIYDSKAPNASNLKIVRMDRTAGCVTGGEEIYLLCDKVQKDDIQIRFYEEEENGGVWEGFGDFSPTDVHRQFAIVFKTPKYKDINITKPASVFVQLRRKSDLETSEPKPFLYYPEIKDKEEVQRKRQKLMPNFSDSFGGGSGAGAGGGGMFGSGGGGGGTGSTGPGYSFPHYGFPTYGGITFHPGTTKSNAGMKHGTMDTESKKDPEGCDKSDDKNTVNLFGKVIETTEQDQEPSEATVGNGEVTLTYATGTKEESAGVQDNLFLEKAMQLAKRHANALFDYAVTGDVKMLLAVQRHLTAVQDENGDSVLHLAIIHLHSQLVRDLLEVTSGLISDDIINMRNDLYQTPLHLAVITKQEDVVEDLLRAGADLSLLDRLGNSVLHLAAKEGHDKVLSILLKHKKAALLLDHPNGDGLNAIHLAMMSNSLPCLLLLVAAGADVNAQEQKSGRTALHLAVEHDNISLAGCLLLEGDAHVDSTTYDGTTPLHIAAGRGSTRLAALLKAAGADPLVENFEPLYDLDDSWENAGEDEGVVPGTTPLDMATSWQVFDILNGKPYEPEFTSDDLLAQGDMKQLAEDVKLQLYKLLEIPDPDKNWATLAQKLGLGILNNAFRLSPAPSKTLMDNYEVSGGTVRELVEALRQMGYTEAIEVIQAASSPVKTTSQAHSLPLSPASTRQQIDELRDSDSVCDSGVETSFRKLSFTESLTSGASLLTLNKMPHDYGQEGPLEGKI

FLAG-NMI (human) [2] = biological target: T1, FLAG-NMI (human); assay: co-IP; 293T cells transfected with Myc-p65 and FLAG-NMI, lysed 24 h after transfection; immunoprecipitated with anti-FLAG or anti-Myc Abs, immunoblotted with anti-Myc or anti-FLAG Abs
[3] = biological target: T2, Endogenous NMI (HeLa cells) (human (endogenous in HeLa)) (UniProt Q13287); assay: co-IP; endogenous proteins; HeLa lysates immunoprecipitated with anti-NMI Ab, immunoblotted with anti-p65 Ab
T2 sequence: T1 sequence

[4] = biological target: T3, NMI (HA- or Myc-tagged, transfected HeLa cells, Fig. 4D-H) (human) (UniProt Q13287); assay: co-IP; HeLa cells transfected with the indicated plasmids; immunoprecipitated with anti-Myc Ab, immunoblotted with anti-HA Ab
T3 sequence: T1 sequence

Substance: HA-p65 (from UniProt Q04206 1-551)
- binding (FLAG-NMI (human) [1]): binds

Substance: Myc-p65 (from UniProt Q04206 1-551)
- binding (FLAG-NMI (human) [2]): binds

Substance: p65 (endogenous, HeLa cells) (from UniProt Q04206 1-551)
- binding [3]: binds

Substance: p105/p50 (from UniProt P19838 1-968)
- binding [4]: binds

— PMC5674077
